These results are taken from publication PMC6954236.

Protein sequences, listed by entry. Tags and fused reporters are not part of them. Lines headed by an entry give the natural chain unless they say otherwise; changes in a name come on top.
UniProt Q96KS0: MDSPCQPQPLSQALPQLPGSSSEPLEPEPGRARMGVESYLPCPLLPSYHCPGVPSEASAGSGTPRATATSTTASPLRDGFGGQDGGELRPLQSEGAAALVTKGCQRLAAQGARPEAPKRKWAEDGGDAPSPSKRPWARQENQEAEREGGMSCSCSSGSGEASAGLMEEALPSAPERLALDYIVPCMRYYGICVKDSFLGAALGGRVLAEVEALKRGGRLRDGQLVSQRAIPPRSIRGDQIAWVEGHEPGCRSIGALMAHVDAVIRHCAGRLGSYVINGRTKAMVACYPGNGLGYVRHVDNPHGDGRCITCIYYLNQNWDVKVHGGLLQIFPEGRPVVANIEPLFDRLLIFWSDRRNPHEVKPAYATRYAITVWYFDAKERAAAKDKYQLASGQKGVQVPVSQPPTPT
UniProt Q9P2J5: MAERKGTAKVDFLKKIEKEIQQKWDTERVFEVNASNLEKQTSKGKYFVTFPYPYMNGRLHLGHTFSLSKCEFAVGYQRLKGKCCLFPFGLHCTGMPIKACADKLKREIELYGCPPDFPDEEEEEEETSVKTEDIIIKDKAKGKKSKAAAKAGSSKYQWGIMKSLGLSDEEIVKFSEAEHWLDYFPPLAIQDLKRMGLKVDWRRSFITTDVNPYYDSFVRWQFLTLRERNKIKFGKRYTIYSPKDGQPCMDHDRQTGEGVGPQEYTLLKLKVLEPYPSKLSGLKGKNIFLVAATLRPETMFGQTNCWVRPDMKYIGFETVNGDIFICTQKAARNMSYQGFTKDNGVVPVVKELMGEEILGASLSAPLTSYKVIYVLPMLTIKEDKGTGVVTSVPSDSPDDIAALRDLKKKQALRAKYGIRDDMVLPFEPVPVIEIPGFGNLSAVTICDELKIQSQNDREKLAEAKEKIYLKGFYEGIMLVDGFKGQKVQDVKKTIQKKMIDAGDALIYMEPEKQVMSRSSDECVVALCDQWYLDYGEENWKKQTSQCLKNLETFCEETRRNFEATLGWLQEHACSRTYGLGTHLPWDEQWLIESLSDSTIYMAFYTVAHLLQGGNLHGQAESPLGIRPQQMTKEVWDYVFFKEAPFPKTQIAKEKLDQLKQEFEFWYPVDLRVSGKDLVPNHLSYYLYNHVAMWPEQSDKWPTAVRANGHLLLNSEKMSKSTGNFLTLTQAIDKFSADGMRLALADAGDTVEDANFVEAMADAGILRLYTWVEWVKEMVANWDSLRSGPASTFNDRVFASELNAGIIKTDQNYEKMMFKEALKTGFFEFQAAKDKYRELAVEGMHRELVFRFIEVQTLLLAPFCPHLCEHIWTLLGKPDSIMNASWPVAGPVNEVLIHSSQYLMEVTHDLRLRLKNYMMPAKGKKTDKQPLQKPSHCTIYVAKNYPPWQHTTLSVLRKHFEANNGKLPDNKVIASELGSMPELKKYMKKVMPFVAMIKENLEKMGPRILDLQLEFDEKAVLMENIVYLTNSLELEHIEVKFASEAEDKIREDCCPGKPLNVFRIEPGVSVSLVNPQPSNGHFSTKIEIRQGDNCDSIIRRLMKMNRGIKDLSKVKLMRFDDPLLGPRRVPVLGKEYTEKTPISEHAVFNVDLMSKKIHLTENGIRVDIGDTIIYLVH

These are yes or no findings as the source states them, for the method shown. In cells and extracts the contact can be indirect. Binding can be weak; no strength is given.

This assay addresses flag-PHD1^MUT (catalytically inactive PHD1 mutant) (UniProt Q96KS0). The assay can be described thus: co-IP; HEK293T co-transfected with Myc-LRS and flag-PHD1 (WT or MUT) for 72 h; 300 µg lysate protein on ANTI-FLAG M2 Affinity Gel at 4 °C overnight; washed 3 times in lysis buffer with 50 mM NaCl added; blot with anti-myc; cells untreated, treated with DMOG or amino acid starved for 4 h.

In the case of “myc-LRS (leucyl tRNA synthetase) (from UniProt Q9P2J5 1-1176) (enzyme)”, the binding result is “binds”.
